PubChem BioAssay AID2685 (National Center for Advancing Translational Sciences (NCATS), 2010)
In all, about 320,000 compounds went through this assay and about 2,100 (0.66%) were called active. Inconclusive results, whose numbers are uncertain, are shown with a selection of clear calls. Calls follow the shape of the dose curve; as a rule, active = well fitted inhibition curve with a large enough effect in the signal ratio, with a control signal flat (not every such curve was filed as active); inconclusive = small, poorly fitted or top-dose-only effect, or effect the other way, or a change in a side signal; inactive = flat fitted curve, though single readings scatter; the % refers to the signal ratio. Where the call is inconclusive, the potency comes from a doubtful curve fit.

Test: qHTS Assay for Lipid Storage Modulators in Drosophila S3 Cells
Conditions: BODIPY lipid droplet fluorescence, 18-24 h, cells fed with added oleic acid; lipid storage change, negative = inhibition: at 46.1 µM (top of the series) unless noted
How it was run: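 Drosophila S3 cells loaded with oleic acid (400 uM, as added) and compounds at several concentrations; lipid droplets imaged by 488-nm laser-scanning cytometry, 500–530 nm intensity and object ratio to cell channel. Percent activity normalized to 20 uM Triacsin C.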
% is scaled to controls: 0 for no effect and ±100 for the full control effect; potency is read from the fitted curve at half-maximal effect.

SMILES | Potency | lipid storage change, negative = inhibition
Cc1cccc(NC(=O)COC(=O)c2cccc(S(=O)(=O)N3CCCCCC3)c2)c1 | inconclusive: 4.11 µM [falling, single point] | 
C=CCSc1nc(O)c(CC)c(=O)n1C(C)CC (centres undefined) |  | inactive
CCNc1oc(COc2ccccc2F)nc1C#N |  | inconclusive: 22.5%
O=C(c1cccc(N2C(=O)C3C4C=CC(C4)C3C2=O)c1)N1CCN(c2ccccc2Cl)CC1 (centres undefined) |  | inconclusive: 0.93%
Cc1ccc(Oc2ncccc2/C=N/OCc2ccc(Cl)c(Cl)c2)cc1 |  | inconclusive: -31.1%
O=C(COc1ccc(Cl)cc1)Nc1ccc(Cl)cn1 |  | inconclusive: -40.3%
COc1cccc(NS(=O)(=O)c2ccc3[nH]cc(C(=O)N(C)Cc4ccco4)c(=O)c3c2)c1 |  | inconclusive: -9.35%
Cc1nc2ccccc2n1CC(=O)OCC(=O)NC1CC1 |  | inconclusive: -45%
COCC1CCCN(C(=O)c2cc(COc3cccc4cccnc34)on2)C1 (centres undefined) | inconclusive: 23.1 µM [falling, single point] | 
COc1ccc(/C=N/NC(=O)CCSc2nc3ccccc3s2)cc1 |  | inconclusive: -2.04%
C1=CC2C3C=CC(C3)C2C1 (centres undefined) |  | inconclusive: 11%
Cc1ccc(C(=O)ONC(=O)c2ccc(Cl)cc2)cc1[N+](=O)[O-] |  | inconclusive: 8.8%
CCC(CCCO)CCC[C@H](C)CCC1OCCO1 (some centres undefined) |  | inconclusive: -3.86%
O=C(NCc1ccc(F)cc1)c1c(O)c2cccc3c2n(c1=O)CCC3 |  | inconclusive: -0.0881%
CCOC(=O)c1c(NC(=O)COC(=O)Cn2cnc3ccccc32)sc(C)c1C |  | inconclusive: 0.132%
COc1ccc(CCNC(=S)Nc2ccc(C(C)C)cc2)cc1 |  | inconclusive: -5.52%
Cc1ccc(N(C(C)C(=O)O)S(=O)(=O)c2c(C)[nH]c(=O)[nH]c2=O)cc1 (centres undefined) |  | inconclusive: 3.29%
Nc1c(C(=O)NCc2ccco2)nnn1-c1ccccc1 |  | inconclusive: 27.4%
Nc1nonc1-n1nnc(C(=O)N/N=C/c2ccc3c(c2)OCO3)c1-c1ccccc1 |  | inconclusive: -37.8%
Cn1nnc(NC(=O)c2cccc(F)c2)n1 |  | inconclusive: -6.07%
S=C(Nc1ccccc1Cl)N1CCOCC1 | inconclusive: 3.66 µM [falling, partial curve, poor fit] | 
Cc1ccccc1Nc1nc(N)nc(COC(=O)c2cccn2C)n1 | inconclusive: 36.6 µM [activator, partial curve, poor fit] | 
COc1cccc(N2CC(=O)N(NC(=O)CSc3nc(C)cc(C)c3C#N)CC2=O)c1 |  | inconclusive: 6.1%
CCOc1ccc(N2CC(C(=O)NCCc3c[nH]c4ccc(OC)cc34)CC2=O)cc1 (centres undefined) |  | inconclusive: -99.5%
COc1cccc2cc(C(=O)NCc3ccco3)c(=O)oc12 |  | inconclusive: 21.6%
CCCCn1cc(S(=O)(=O)c2ccccc2)c(=O)c2cc(C)ccc21 |  | inconclusive: -0.952%
CCCn1c2ccccc2c2nnc(SCC(=O)Nc3c(C)n(C)n(-c4ccccc4)c3=O)nc21 |  | inconclusive: 19.8%

16 entries from above, set out differently:
SMILES,Potency,"lipid storage change, negative = inhibition"
CCNc1oc(COc2ccccc2F)nc1C#N,,inconclusive: 22.5%
O=C(c1cccc(N2C(=O)C3C4C=CC(C4)C3C2=O)c1)N1CCN(c2ccccc2Cl)CC1 (centres undefined),,inconclusive: 0.93%
Cc1ccc(Oc2ncccc2/C=N/OCc2ccc(Cl)c(Cl)c2)cc1,,inconclusive: -31.1%
O=C(COc1ccc(Cl)cc1)Nc1ccc(Cl)cn1,,inconclusive: -40.3%
COc1cccc(NS(=O)(=O)c2ccc3[nH]cc(C(=O)N(C)Cc4ccco4)c(=O)c3c2)c1,,inconclusive: -9.35%
Cc1nc2ccccc2n1CC(=O)OCC(=O)NC1CC1,,inconclusive: -45%
COCC1CCCN(C(=O)c2cc(COc3cccc4cccnc34)on2)C1 (centres undefined),"inconclusive: 23.1 µM [falling, single point]",
COc1ccc(/C=N/NC(=O)CCSc2nc3ccccc3s2)cc1,,inconclusive: -2.04%
C1=CC2C3C=CC(C3)C2C1 (centres undefined),,inconclusive: 11%
Cc1ccc(C(=O)ONC(=O)c2ccc(Cl)cc2)cc1[N+](=O)[O-],,inconclusive: 8.8%
CCC(CCCO)CCC[C@H](C)CCC1OCCO1 (some centres undefined),,inconclusive: -3.86%
O=C(NCc1ccc(F)cc1)c1c(O)c2cccc3c2n(c1=O)CCC3,,inconclusive: -0.0881%
CCOC(=O)c1c(NC(=O)COC(=O)Cn2cnc3ccccc32)sc(C)c1C,,inconclusive: 0.132%
COc1ccc(CCNC(=S)Nc2ccc(C(C)C)cc2)cc1,,inconclusive: -5.52%
Cc1ccc(N(C(C)C(=O)O)S(=O)(=O)c2c(C)[nH]c(=O)[nH]c2=O)cc1 (centres undefined),,inconclusive: 3.29%
Nc1c(C(=O)NCc2ccco2)nnn1-c1ccccc1,,inconclusive: 27.4%

The results go on.

SMILES | Potency | lipid storage change, negative = inhibition
CCCc1ccc2oc(C(=O)NCCc3nc(C(=O)OCC)cs3)c(C)c2c1 |  | inconclusive: -100%
N#CCOc1nc(N2CCCCC2)nc(N2CCCCC2)n1 |  | inconclusive: 17.3%
Cc1cc(C(=O)CN2C(=O)C(=O)N(C)C2=O)c(C)n1-c1cccc(S(=O)(=O)N2CCOCC2)c1 |  | inconclusive: -4.02%
CCN(C(=O)c1cc(S(=O)(=O)N2CCCC2)ccc1C)C1CCS(=O)(=O)C1 (centres undefined) | inconclusive: 11.6 µM [falling, partial curve] | 
O=C(CCc1ccccc1)Nc1ccccc1C(F)(F)F |  | inconclusive: -0.434%
CCc1nc(SCC(=O)NNC(=O)c2ccc(C)cc2)c2ccccc2n1 | inconclusive: 29.1 µM [activator, single point] | 
COC(=O)C1CC(c2ccc(Cl)cc2)=NO1 (centres undefined) |  | inconclusive: -94.3%
O=C(OCC(O)C(O)COC(=O)c1ccccc1)c1ccccc1 (centres undefined) |  | inconclusive: 0.437%
O=C1CN(C(=O)NCC(=O)N[C@H](C(=O)O)c2ccccc2)c2ccccc2N1 | inconclusive: 0.731 µM [rising, single point] | 
COc1ccc(CCNC(=O)C2CCC(=O)N2Cc2ccccc2Cl)cc1OC (centres undefined) |  | inactive
CC(=O)c1c(C)[nH]c(C(=O)Nc2nc(C)cs2)c1C |  | inactive
CCOc1cc(/C=N/Nc2ncc(C)c(=O)[nH]2)ccc1O | inconclusive: 1.3 µM [activator, partial curve] | 
Cc1c(NC(=O)COc2cccc(Br)c2)c(=O)n(-c2ccccc2)n1C |  | inconclusive: -31.3%
OCc1nc2ccccc2n1CCc1ccccc1 |  | inconclusive: -50.7%
COc1ccccc1N1C(=O)C2C(C(=O)c3ccccc3)=NN(c3ccc(Br)cc3)C2C1=O (centres undefined) |  | inconclusive: 36.5%
CNC(=S)N1CCC(c2nc3ccccc3s2)CC1 | inconclusive: 29.1 µM [cytotoxic, single point] | 
COCCN1C(=O)C(=O)/C(=C(/O)c2cccc(S(=O)(=O)N(C)C)c2)C12C(=O)N(C)c1ccccc12 (centres undefined) |  | inconclusive: 33.3%
O=C(NC(=S)NCc1ccco1)c1ccccc1 |  | inactive
Cc1ccccc1N(C)C(=O)C1CCCN(c2ncnc3c2nc2n3CCCCC2)C1 (centres undefined) |  | inconclusive: -49.8%
Cc1ccc(Cn2c(=N)c(C(=O)NCc3ccco3)cc3c(=O)n4ccccc4nc32)cc1 |  | inconclusive: -4.32%
O=C(Nc1ccccc1C(=O)O)c1ncn[nH]1 | inconclusive: 0.366 µM [falling, partial curve] | 
Cc1cccc(NC(=O)CN2CCN(CC(=O)Nc3ccc(-c4ccccc4)cc3)CC2)c1C | inconclusive: 0.92 µM [falling, full curve, poor fit] | 
O=C(COC(=O)c1cc(S(=O)(=O)N2CCOCC2)cs1)c1ccccc1 |  | inconclusive: -52.7%
Cc1nc(-c2cccs2)sc1C(=O)NN | inconclusive: 32.6 µM [activator, single point] | 
CC(NC(=O)C(=O)N1CCCCC1)C(c1cccs1)N1CCN(c2ccccc2)CC1 (centres undefined) |  | inconclusive: -8.2%
Oc1[nH]c2ccccc2c1N=Nc1cccc(Cl)c1 | inconclusive: 11.6 µM [falling, partial curve] | 
COc1cc([N+](=O)[O-])ccc1N=Nc1c(N)[nH]n(-c2ccccc2)c1=O |  | inconclusive: 7.2%

Ordered by count of non-hydrogen atoms (largest number first): some entries from above.
SMILES | Potency | lipid storage change, negative = inhibition
COCCN1C(=O)C(=O)/C(=C(/O)c2cccc(S(=O)(=O)N(C)C)c2)C12C(=O)N(C)c1ccccc12 (centres undefined) |  | inconclusive: 33.3%
Cc1ccc(Cn2c(=N)c(C(=O)NCc3ccco3)cc3c(=O)n4ccccc4nc32)cc1 |  | inconclusive: -4.32%
COc1ccc(CCNC(=O)C2CCC(=O)N2Cc2ccccc2Cl)cc1OC (centres undefined) |  | inactive

Later entries.

SMILES | Potency | lipid storage change, negative = inhibition
Cn1ncc(Cl)c1C(=O)N1CCN(C(=O)c2ccco2)CC1 |  | inconclusive: 16.2% [at 9.22 µM]
S=c1[nH]nc(-c2cc(-c3ccccc3)n[nH]2)n1/N=C/c1cccc(Cl)c1 |  | inconclusive: -26.2%
CC(NC(=O)NCc1cccnc1)(C(F)(F)F)C(F)(F)F | inconclusive: 0.0065 µM [falling, full curve] | 
O=C(NCCCO)c1ccc(CSc2nc3ccccc3c(=O)[nH]2)cc1 |  | inconclusive: -6.04%
Cc1nn(C)c(C)c1NC(=O)c1cnn2c(C(F)F)cc(-c3ccccc3)nc12 |  | inconclusive: -15.3%
CC(=O)Nc1nc(C)c(-c2csc(Nc3cccc([N+](=O)[O-])c3)n2)s1 |  | inconclusive: 243%
O=C(c1cccc(S(=O)(=O)N2CCc3ccccc32)c1)N1CCCC(C(F)(F)F)C1 (centres undefined) | inconclusive: 10.3 µM [activator, partial curve] | 
Cc1ccc(NC(=O)c2nc[nH]c2C(=O)N[C@@H](CCCCNC(=O)OC(C)(C)C)C(=O)OC(C)(C)C)cc1 |  | inconclusive: 19%
COc1cccc(Nc2ncnc3sccc23)c1 | inconclusive: 29.1 µM [falling, single point] | 
O=C1C2C3C=CC(CC3)C2C(=O)N1/N=C/c1c[nH]c2ccccc12 (centres undefined) |  | inconclusive: 0.991%
O=C(c1ccc(NS(=O)(=O)c2ccc(F)cc2)cc1)N1CCC1 |  | inconclusive
O=C(CSCc1ccc(Cl)cc1Cl)Nc1ccc(O)cc1C(=O)O | inconclusive: 29.1 µM [activator, single point] | 
CC(C)CNC(=O)COC(=O)c1ccccc1OCC(=O)Nc1ccc(Br)cc1 |  | inconclusive: 9.91%
COC(=O)[C@H](CCSC)NC(=O)Nc1ccc(C)cc1 |  | inconclusive: -32.8%
OC1(C#CCCN2CCCCC2)c2ccccc2-c2ccccc21 |  | inconclusive: 13.8%
CSc1ccccc1C(=O)N1CCc2ccccc2C1 |  | inconclusive: -6.65%
CCOC(=O)CCCCCN1C(=O)c2cccc3cccc(c23)C1=O | inconclusive: 5.8 µM [falling, full curve] | 
O=C(NN1CCOCC1)c1cc(-c2ccc(Cl)c(Cl)c2)nc2ccccc12 |  | inconclusive: 21.4%
CN(C)c1ccc(N=Nc2ccccc2C(=O)OCC(=O)Nc2ccccc2C(F)(F)F)cc1 | inconclusive: 29.1 µM [falling, single point] | 
COc1ccccc1CNC(=O)CCCc1nnc2n(C)c(=O)c3sccc3n12 | active: 1.3 µM | 
Cc1nc2c(cc(Oc3ccc(S(=O)(=O)N4CCOCC4)cn3)c3ccsc32)s1 |  | inconclusive: 37.5%
COCc1nnc(NC(=O)COc2ccc3c(c2)OCO3)s1 |  | inconclusive: 15.2%
CCCc1cc(=O)n2nc(N3CCC(C(=O)Nc4c(F)c(F)c(F)c(F)c4F)CC3)sc2n1 | inconclusive: 2.91 µM [activator, single point] | 
CC(=O)c1ccc(N2CCN(S(=O)(=O)c3ccc(-c4cnc(C5CC5)o4)cc3)CC2)cc1 |  | inconclusive: -13.4%
COc1ccc(/C=N/Nc2nc(N3CCCC3)nc(N3CCCC3)n2)cc1O |  | inconclusive: -25.2%
